# Assay results from PMC10626543.
# Protein sequences, listed by entry. Tags and fused reporters are not part of them. Residues count along the entry.
# UniProt P48678, residues 1-647: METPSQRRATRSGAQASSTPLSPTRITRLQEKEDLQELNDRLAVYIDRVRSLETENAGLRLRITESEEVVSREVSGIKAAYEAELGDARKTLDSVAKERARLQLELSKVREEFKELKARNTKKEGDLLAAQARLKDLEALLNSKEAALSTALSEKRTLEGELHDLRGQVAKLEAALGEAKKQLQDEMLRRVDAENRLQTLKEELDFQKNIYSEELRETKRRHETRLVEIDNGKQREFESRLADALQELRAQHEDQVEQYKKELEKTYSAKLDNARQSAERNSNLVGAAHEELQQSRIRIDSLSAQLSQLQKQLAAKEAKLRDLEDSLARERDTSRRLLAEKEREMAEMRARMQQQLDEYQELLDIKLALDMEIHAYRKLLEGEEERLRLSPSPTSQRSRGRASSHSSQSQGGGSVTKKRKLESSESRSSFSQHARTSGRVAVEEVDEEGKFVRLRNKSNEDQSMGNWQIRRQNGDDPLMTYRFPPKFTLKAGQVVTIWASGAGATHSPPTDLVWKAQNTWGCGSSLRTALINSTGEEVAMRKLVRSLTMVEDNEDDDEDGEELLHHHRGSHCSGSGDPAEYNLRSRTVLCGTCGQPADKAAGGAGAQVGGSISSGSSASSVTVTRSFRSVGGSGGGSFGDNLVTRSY
# No constants are given. Whether binding was seen depends on the method and setting. Binding seen in cells or lysates may run through a third protein. A yes stands for co-enrichment or nearness to the bait. Other partners may have been found.
# B1: PDZ and LIM domain protein 5 (protein, UniProt Q8CI51-2 1-337)
# chain: MSNYSVSLVGPAPWGFRLQGGKDFNMPLTISSLKDGGKASQAHVRIGDVVLSIDGISAQGMTHLEAQNKIKACTGSLNMTLQRASAAAKSEPVSVQKGEPKEVVKPVPITSPAVSKVTSTTNMAYNKAPRPFGSVSSPKVTSIPSPSSAFTPAHAATSSHASPTPVAAATPLHLSASGLHVSANLSADQCSSPPNTGKPAVNVPRQPTVTSVCSESAQELAEGQRRGSQGDIKQQNGPPRKHIVERNTEFYHIPTHSDASKKRLIEDTEDWRPRTGTTQSRSFRILAQITGTEHLTESENDNTKKAKEKIPLHVFSPKYTKLRDWHHEVSARALNVQ
# B2: Fatty acid-binding protein, adipocyte (mouse) (protein, UniProt P04117 1-132)
# chain: MCDAFVGTWKLVSSENFDDYMKEVGVGFATRKVAGMAKPNMIISVNGDLVTIRSESTFKNTEISFKLGVEFDEITADDRKVKSIITLDGGALVQVQKWDGKSTTIKRKRDGDKLVVECVMKGVTSTRVYERA
# B3: Fhl1 (protein, UniProt P97447 1-280)
# chain: MSEKFDCHYCRDPLQGKKYVQKDGRHCCLKCFDKFCANTCVDCRKPISADAKEVHYKNRYWHDNCFRCAKCLHPLASETFVSKDGKILCNKCATREDSPRCKGCFKAIVAGDQNVEYKGTVWHKDCFTCSNCKQVIGTGSFFPKGEDFYCVTCHETKFAKHCVKCNKAITSGGITYQDQPWHAECFVCVTCSKKLAGQRFTAVEDQYYCVDCYKNFVAKKCAGCKNPITGFGKGSSVVAYEGQSWHDYCFHCKKCSVNLANKRFVFHNEQVYCPDCAKKL
# B4: Cryab (aka Hspb5) (protein, UniProt P23927 1-175)
# chain: MDIAIHHPWIRRPFFPFHSPSRLFDQFFGEHLLESDLFSTATSLSPFYLRPPSFLRAPSWIDTGLSEMRLEKDRFSVNLDVKHFSPEELKVKVLGDVIEVHGKHEERQDEHGFISREFHRKYRIPADVDPLTITSSLSSDGVLTVNGPRKQVSGPERTIPITREEKPAVAAAPKK
# B5: dystrobrevin-alpha (protein, UniProt Q9D2N4 1-746)
# chain: MIEDSGKRGNTMAERRQLFAEMRAQDLDRIRLSTYRTACKLRFVQKKCNLHLVDIWNVIEALRENALNNLDPNIELNVARLEAVLSTIFYQLNKRMPTTHQIHVEQSISLLLNFLLAAFDPEGHGKISVFAVKMALATLCGGKIMDKLRYIFSMISDSSGVMVYGRYDQFLREVLKLPTAVFEGPSFGYTEQSARSCFSQQKKVTLNGFLDTLMSDPPPQCLVWLPLLHRLANVENVFHPVECSYCHSESMMGFRYRCQQCHNYQLCQDCFWRGHAGGSHSNQHQMKEYTSWKSPAKKLTNALSKSLSCASSREPLHPMFPDQPEKPLNLAHIVPPRPVTSMNDTLFSHSVPSSGSPFITRSSPPKDSEVEQNKMLARAAPAFLKGRGIQYSLNVADRLADEHVLIGLYVNMLRNDPPCMLESSNRLDEEHRLIARYAARLAAESSSSQPTQQRSAPDISFTIDANKQQRQLIAELENKNREILQEIQRLRVEHEQASQPTPEKAQQNPTLLAELRLLRQRKDELEQRMSALQESRRELMVQLEGLMKLLKEEELKQGTQGASSPRSSPSHTISRPIPMPIRSASACPTPTHTPQDSLTGVGGDVQEAFAQSSRRNLRSDLLVAADSITNTMSSLVKELNSEVASETESTVDSEFSRPQFEDLAPSPTSEKAFLAQIHSRKPGYIHGGAASTTHGDMVPEDGDPYTQPEDGNYENESVRQLENELQLEEYLKQKLQDEAYQVSLQG
# B6: Ser/Thr-protein kinase TAO1 (protein, UniProt Q5F2E8 1-1001)
# chain: MPSTNRAGSLKDPEIAELFFKEDPEKLFTDLREIGHGSFGAVYFARDVRTNEVVAIKKMSYSGKQSTEKWQDIIKEVKFLQRIKHPNSIEYKGCYLREHTAWLVMEYCLGSASDLLEVHKKPLQEVEIAAITHGALQGLAYLHSHTMIHRDIKAGNILLTEPGQVKLADFGSASMASPANSFVGTPYWMAPEVILAMDEGQYDGKVDVWSLGITCIELAERKPPLFNMNAMSALYHIAQNESPTLQSNEWSDYFRNFVDSCLQKIPQDRPTSEELLKHMFVLRERPETVLIDLIQRTKDAVRELDNLQYRKMKKLLFQEAHNGPAVEAQEEEEEQDHGVGRTGTVNSVGSNQSIPSMSISASSQSSSVNSLPDASDDKSELDMMEGDHTVMSNSSVIHLKPEEENYQEEGDPRTRASDPQSPPQVSRHKSHYRNREHFATIRTASLVTRQMQEHEQDSELREQMSGYKRMRRQHQKQLMTLENKLKAEMDEHRLRLDKDLETQRNNFAAEMEKLIKKHQAAMEKEAKVMANEEKKFQQHIQAQQKKELNSFLESQKREYKLRKEQLKEELNENQSTPKKEKQEWLSKQKENIQHFQAEEEANLLRRQRQYLELECRRFKRRMLLGRHNLEQDLVREELNKRQTQKDLEHAMLLRQHESMQELEFRHLNTIQKMRCELIRLQHQTELTNQLEYNKRRERELRRKHVMEVRQQPKSLKSKELQIKKQFQDTCKIQTRQYKALRNHLLETTPKSEHKAVLKRLKEEQTRKLAILAEQYDHSINEMLSTQALRLDEAQEAECQVLKMQLQQELELLNAYQSKIKMQAEAQHDRELRELEQRVSLRRALLEQKIEEEMLALQNERTERIRSLLERQAREIEAFDSESMRLGFSNMVLSNLSPEAFSHSYPGASSWSHNPTGGPGPHWGHPMGGTPQAWGHPMQGGPQPWGHPSGPMQGVPRGSSMGVRNSPQALRRTASGGRTEQGMSRSTSVTSQISNGSHMSYT
# B7: Tyrosine-protein kinase SgK223 (protein, UniProt Q571I4 1-1373)
# chain: MSACSDFVEHIWKPGSCKNCFCLRSDHQPTAGHPKARANSLPAGTRLPARPENCRLDDEGVNGLAYSKPTIAVKPTMMTSETSDLWTEASLSAEVPKVNWRRTPGKLLLPKQEDEPIVYLGSFRGLQKPASPLACTDGNSRCPPAYTMVGLHNLEARVDRNTAFQPVSFQEEKAGREELPSAHESFRQKLAAFAGMTSSCPKGPRPCTSPQPLRESLPSEDDSDQRCSPSGDSEGGEYCSILDCCPESKDAVHSTEGSGRRGGDCSPTCREQGPRTRPTEEEKQGLSFPRECCGQGSTANPPRLGPKKPSLNSEAASSSDGLSCGSSRSGASSPFAPHLENDYCSLVKEPASGKQQDLSGHFLTSGKCVGQAAELQPASLLRDPVQPEPIYAESAKRKKAAPGPPRPEPKKEQVPAGHSQGQVWTGDTWIQKTPPSWSQDREGANPAPQVATTITVIAAHPEEDHRTIYLSSPDSAVGVQWPRGPSNQDLQAGEEEPLVAQGLTSRESHPHNVTENTAKEKPAIPPKLSKSSPGGSPVSPAPPLTDHSDGNTGGSSVGPQLLSRVPANLTSSCHTNGVATAGDSAKCPPPATSSSVLDQRRPRYQTGAWSRQCRIEEEEEVGQELSQSWGRELENGTADHSNSSTWHRLHPIDGTSGQNSKTNSGMSKSASFAFEFPKDRGRLEAFSPPPPPPKSRHLLKMNKSSSDLEKVSQSSAESLSPSFRGAHVSFTTGSTDSLASDSRPCSDGGPSYEPTHSPTISGKKLFAPVPFPSGSTEDVSPGGGPAQPPPLPQKKIVSRAASSPDGFFWTQGSPKPRTASPKLNLSHSETNVCAHDEPPFNCSLNSGNRSHHVFSSSEPLGKAFKGNAPWAPALGLANSKGGCGSPSLQCRAATSTSSSQLSVSSQASSSSTQLQLHSLLSSISSKEGTYAKLGGLYTQSLARLVTKCEDLFMGGQKKELRFNENYWSLFKLTCNKPCCDSGDAIYYCATCSEDPGSIYAVKICKTPEPKSASYCSPSVPVHFNIQQDCGHFVASVPSSMLASPDTSSKDTAPAVSPQPPAQEQDCVVVITREVPHQTASDFVRDSMASHRAEPEVYERRVCFLLLQLCNGLEHLKEHGIIHRDLCLENLLLAHCNPQSSPGPSATPTVPTTTSRCPSAAPAATTACQGGPGEKQLPRLIISNFLKAKQKPGGTTNLQQKKSQARLAPEIVSASQYRKFDEFQTGILIYELLHQPNPFEVRAQLRERDYRREDLPPLPTLSLYSPGLQQLAHLLLEADPIKRIRIGEAKRVLQCLLWGPRRELVEQPCTSEEVLCNTLHNWIDMKRALMMMKFAEKAVDRRRGVELEDWLCCQYLASAEPGALLQSLKLLQLL
# B8: Mitotic spindle assembly checkpoint protein MAD1 (protein, UniProt Q9WTX8 1-717)
# chain: MEDLGENTTVLSSLRSLNNFISQRMEGTSGLDVSTSASGSLQKQYEYHMQLEERAEQIRSKSYLIQVEREKMQMELSHKRARVELERAASTNARNYEREVDRNQELLARIRQLQECEATAEEKMREQLERHRLCKQNLDAVSQQLREQEDSLASAREMISSLKGRVSELQLSAMDQKVQVKRLESEKQELKEQLELQQRKWQEANQKIQELQASQDERAEHEQKIKDLEQKLCLQEQDAAVVKSMKSELMRMPRMERELKRLHEENTHLREMKETNGLLTEELEGLQRKLSRQEKMQEALVDLELEKEKLLAKLQSWENLDQTMGLNLRTPEDLSRFVVELQQRELTLKEKNNSITSSARGLEKVQQQLQDEVRQANAQLLEERKKRETHEALARRLQKRNALLTKERDGMRAILGSYDSELTQTEYSTQLTQRLWEAEDMVQKVHAHSSEMEAQLSQALEELGVQKQRADTLEMELKMLKAQTSSAESSFSFCKEEVDALRLKVEELEGERSRLEQEKQVLEMQMEKLTLQGDYNQSRTKVLHMSLNPISMARQRQHEDHDRLQEECERLRGLVHALERGGPIPADLEAASSLPSSKEVAELRKQVESAELKNQRLKEVFQTKIQEFRKVCYTLTGYQIDVTTESQYRLTSRYAEHQTDCLIFKATGPSGSKMQLLETEFSRSVPELIELHLLQQDSIPAFLSALTIELFSRQTSI
# B9: Trimeric intracellular cation channel type A (protein, UniProt Q3TMP8 1-298)
# chain: MDLMSALSLGELALSFSRVPLFPVFDLSYFIVSIIYLKYEPGAVELSRRHPVASWLCAMLHCFGSYILADLLLGEPIIDYFSNSSSILLASGVWYLIFFCPLDLFYKCVCFLPVKLIFVAMKEVVRVRKIAVGIHHAHHHYHHGWFIMIATGWVKGSGVALLSNVEQLLRGVWKPETNEILHMSFPTKASLYGAILFTLQQTRWLPVSKASLIFVFTMFMVSCKVFLTATHSHSSPFDILEGYICPVLFGATWGGDHHHDNHGAPHGMGLGTQHSGLPAKAKEELGEGSRKKKTKKAD
# Legend:
# [1] = target: native lamin A/C (mouse (endogenous in heart, skeletal muscle and brain)) (UniProt P48678); assay: affinity purification with mass spectrometry; native lamin A/C immunoprecipitated with mAb 4C11 and Protein G Sepharose from sonicated heart lysates of old IL10-KO and control C57Bl/6 female mice (five each); 50 mM Tris pH 7.4, 300 mM NaCl, 0.3% Triton X-100, 4°C; TMT 10-plex
# [2] = target: native lamin A/C (mouse (endogenous in heart, skeletal muscle and brain)) (UniProt P48678); assay: affinity purification with mass spectrometry; native lamin A/C immunoprecipitated with mAb 4C11 and Protein G Sepharose from sonicated skeletal muscle lysates of old IL10-KO and control C57Bl/6 female mice (five each); 50 mM Tris pH 7.4, 300 mM NaCl, 0.3% Triton X-100, 4°C; TMT 10-plex
binder,measurement,setting,value
B1,binding,[1],binds
same,binding,[2],binds
B2,binding,[1],binds
same,binding,[2],binds
B3,binding,[1],binds
same,binding,[2],binds
B4,binding,[1],binds
same,binding,[2],binds
B5,binding,[1],binds
same,binding,[2],binds
B6,binding,[1],binds
B7,binding,[1],binds
same,binding,[2],binds
B8,binding,[1],binds
B9,binding,[1],binds
same,binding,[2],binds
